Experimental findings from patent US20040014026A1 (YISSUM RESEARCH DEVELOPMENT COMPANY OF THE HEBREW …, published 2004) are described below.

The chains behind the UniProt entries cited, without tags or fusion partners. Where a name states a change or a piece, a line headed by the entry shows the natural chain unless it says otherwise. A line that says so, or that is headed by a name, gives the form on record, which may keep a tag or linker. Residues count along the entry.
UniProt Q8VEK3: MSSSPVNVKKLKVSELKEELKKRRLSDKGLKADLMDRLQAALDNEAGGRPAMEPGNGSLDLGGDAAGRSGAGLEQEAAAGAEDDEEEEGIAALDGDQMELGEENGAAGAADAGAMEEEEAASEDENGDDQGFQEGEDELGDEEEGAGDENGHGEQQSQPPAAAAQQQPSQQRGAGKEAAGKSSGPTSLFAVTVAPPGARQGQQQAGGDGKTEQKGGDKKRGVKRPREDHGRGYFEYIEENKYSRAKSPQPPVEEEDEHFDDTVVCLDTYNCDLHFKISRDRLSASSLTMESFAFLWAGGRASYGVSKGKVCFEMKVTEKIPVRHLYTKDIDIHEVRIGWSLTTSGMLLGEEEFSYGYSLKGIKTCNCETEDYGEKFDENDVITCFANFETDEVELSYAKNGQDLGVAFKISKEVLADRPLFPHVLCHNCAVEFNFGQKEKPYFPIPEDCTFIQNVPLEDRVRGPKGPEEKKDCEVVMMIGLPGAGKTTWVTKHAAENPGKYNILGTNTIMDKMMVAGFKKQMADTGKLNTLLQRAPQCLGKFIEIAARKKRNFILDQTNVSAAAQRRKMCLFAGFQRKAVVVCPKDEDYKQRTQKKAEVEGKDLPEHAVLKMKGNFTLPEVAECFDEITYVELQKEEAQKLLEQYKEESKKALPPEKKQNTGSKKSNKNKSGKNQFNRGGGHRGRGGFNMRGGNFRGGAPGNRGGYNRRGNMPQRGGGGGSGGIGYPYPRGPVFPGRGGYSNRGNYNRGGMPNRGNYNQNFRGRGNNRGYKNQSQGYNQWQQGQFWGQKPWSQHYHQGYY
198 amino acid N-terminal fragment of hnRNP-U (N-198), Flag tagged (Q00839, residues 1-198): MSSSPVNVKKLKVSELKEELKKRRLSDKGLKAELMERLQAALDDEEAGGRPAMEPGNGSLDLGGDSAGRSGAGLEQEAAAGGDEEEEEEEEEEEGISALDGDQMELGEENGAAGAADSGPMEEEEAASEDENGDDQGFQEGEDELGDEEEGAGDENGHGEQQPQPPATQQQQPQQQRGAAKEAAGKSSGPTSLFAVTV
400 aa N-terminal fragment of hnRNP-U (N), Flag tagged (Q00839, form named): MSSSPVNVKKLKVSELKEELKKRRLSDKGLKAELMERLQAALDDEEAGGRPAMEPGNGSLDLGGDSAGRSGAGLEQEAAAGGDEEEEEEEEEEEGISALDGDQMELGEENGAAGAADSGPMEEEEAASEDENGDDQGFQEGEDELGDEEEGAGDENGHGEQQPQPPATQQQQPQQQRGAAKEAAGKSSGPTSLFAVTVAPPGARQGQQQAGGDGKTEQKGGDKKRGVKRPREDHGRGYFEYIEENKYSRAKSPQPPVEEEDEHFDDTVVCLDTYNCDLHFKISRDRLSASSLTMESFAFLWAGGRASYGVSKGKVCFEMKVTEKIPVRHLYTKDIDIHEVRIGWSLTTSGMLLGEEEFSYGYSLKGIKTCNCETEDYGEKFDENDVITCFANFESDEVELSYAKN
Flag-hnRNP-U-mNLS (lysines 224 and 228 substituted by alanine) (Q00839, form named): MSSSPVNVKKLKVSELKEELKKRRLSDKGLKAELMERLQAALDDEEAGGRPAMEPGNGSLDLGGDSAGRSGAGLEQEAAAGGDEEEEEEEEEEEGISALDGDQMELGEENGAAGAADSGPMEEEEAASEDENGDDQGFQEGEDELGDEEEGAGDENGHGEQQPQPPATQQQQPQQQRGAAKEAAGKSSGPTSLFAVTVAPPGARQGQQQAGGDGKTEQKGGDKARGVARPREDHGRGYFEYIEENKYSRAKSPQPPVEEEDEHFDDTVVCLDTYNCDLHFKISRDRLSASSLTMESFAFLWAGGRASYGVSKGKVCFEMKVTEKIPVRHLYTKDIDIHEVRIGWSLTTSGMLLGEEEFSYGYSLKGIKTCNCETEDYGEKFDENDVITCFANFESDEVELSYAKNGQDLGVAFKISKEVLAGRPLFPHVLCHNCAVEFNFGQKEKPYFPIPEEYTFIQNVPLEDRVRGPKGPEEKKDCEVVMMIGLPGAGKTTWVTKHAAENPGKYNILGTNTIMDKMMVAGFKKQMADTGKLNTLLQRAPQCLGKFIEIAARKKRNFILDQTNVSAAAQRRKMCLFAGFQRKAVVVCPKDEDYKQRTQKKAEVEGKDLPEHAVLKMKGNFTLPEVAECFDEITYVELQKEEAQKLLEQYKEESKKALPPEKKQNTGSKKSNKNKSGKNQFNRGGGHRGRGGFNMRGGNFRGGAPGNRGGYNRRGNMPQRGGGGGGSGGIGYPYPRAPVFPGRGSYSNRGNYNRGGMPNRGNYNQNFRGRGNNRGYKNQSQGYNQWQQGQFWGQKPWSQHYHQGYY
Flag-tagged human hnRNP-U (Q00839, form named): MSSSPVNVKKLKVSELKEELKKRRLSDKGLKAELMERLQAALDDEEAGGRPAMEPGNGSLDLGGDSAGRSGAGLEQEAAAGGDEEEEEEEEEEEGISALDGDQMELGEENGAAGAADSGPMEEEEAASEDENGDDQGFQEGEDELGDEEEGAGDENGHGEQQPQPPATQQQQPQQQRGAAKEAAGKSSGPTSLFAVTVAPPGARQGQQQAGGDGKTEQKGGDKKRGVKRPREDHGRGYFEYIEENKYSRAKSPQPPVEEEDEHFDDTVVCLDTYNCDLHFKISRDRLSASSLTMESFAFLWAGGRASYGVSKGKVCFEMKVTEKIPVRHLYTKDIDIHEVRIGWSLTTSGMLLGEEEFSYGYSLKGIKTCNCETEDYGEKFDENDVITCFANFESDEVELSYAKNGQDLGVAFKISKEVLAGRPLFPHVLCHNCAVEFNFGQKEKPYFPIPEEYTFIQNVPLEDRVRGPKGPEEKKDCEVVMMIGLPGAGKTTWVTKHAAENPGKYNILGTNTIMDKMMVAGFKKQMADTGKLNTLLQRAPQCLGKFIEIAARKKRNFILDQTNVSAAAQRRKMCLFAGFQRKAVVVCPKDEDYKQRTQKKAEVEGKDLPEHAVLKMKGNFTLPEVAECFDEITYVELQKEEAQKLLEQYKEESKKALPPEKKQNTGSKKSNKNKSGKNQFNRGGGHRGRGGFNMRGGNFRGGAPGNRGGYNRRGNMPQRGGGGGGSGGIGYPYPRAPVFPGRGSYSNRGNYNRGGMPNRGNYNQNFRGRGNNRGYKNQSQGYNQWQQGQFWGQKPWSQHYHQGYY
hnRNP-U (endogenous protein of 293/293T cells) (Q00839, form named): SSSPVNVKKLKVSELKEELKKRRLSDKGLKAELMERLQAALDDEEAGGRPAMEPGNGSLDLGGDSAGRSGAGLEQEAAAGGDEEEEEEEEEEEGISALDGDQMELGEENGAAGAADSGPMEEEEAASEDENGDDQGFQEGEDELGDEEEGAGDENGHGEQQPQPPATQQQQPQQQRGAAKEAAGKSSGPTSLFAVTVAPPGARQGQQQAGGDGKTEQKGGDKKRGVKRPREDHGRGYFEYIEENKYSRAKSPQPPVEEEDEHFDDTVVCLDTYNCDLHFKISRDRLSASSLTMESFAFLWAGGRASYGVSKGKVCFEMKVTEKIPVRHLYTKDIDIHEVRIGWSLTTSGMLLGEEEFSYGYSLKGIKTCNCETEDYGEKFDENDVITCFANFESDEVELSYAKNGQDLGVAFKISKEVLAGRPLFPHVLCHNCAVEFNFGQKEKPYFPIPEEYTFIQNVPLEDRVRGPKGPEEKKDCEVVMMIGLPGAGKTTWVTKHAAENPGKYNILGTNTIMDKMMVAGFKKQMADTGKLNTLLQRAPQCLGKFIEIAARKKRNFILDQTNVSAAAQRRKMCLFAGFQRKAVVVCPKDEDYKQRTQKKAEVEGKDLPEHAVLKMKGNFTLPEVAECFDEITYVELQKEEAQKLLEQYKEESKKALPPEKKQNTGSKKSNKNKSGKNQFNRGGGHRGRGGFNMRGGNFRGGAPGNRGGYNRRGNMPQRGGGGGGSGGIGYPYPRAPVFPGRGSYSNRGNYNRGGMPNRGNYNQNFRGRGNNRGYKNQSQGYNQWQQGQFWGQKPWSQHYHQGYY
UniProt P63208: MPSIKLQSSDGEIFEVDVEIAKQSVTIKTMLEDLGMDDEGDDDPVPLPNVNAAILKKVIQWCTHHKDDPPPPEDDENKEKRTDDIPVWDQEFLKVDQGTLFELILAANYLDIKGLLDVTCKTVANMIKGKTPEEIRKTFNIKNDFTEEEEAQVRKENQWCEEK

One experiment deals with HA-E3RS (human) (UniProt Q9Y297). The experiment is described as follows: co-transfection with HA-E3RS in 293 cells, anti-Flag immunoprecipitation, Western blot. (In western blotting, separated proteins are transferred to a membrane and probed.)
For the next experiment, the target named is GFP-E3RS (UniProt Q9Y297). Kind of experiment: interaction assay not described, data not shown.
Experiment [1] deals with Flag-tagged mouse hnRNP-U (mouse) (UniProt Q8VEK3). Kind of experiment: co-transfection in 293T cells, anti-Flag immunoprecipitation, anti-HA Western blot.
The target of experiment [2] is Flag-tagged human hnRNP-U (human) (UniProt Q00839). The experiment is described as above.
The target in experiment [3] is Flag-tagged E3RS/βTrCP (Flag-E3RS) (UniProt Q9Y297). Kind of experiment: co-expression in 293T cells, anti-Flag immunoprecipitation, Coomassie.
Experiment [4] concerns the target hnRNP-U (endogenous protein of 293/293T cells) (UniProt Q00839). Kind of experiment: anti-Flag immunopurification, Flag-peptide elution, Coomassie.
Experiment [5] shares this target. The experiment is described as follows: anti-Flag immunoprecipitation from 293T cells, Western blot with monoclonal anti-hnRNP-U.
The target is the same in experiment [6]. Kind of experiment: anti-Flag immunoprecipitation after heat shock with co-expressed Myc-Skp1, Coomassie.
The target is the same in experiment [7]. The experiment is described as follows: co-immunoprecipitation with polyclonal anti-hnRNP-U serum, Western blot.

Results are given in words; binding and its absence hold for the method and conditions named. For some assays here: Binding seen in cells or lysates may run through a third protein. Some binding calls cover weakened binding; strength is not graded here.

“198 amino acid N-terminal fragment of hnRNP-U (N-198), Flag tagged (from UniProt Q00839 1-198)”: the binding entry with HA-E3RS (human) is “binds”.
On the same count and under the same terms, the entry for “400 aa N-terminal fragment of hnRNP-U (N), Flag tagged (from UniProt Q00839 1-405)” is “binds”.
Turning to “Flag-hnRNP-U-mNLS (lysines 224 and 228 substituted by alanine) (from UniProt Q00839 1-806)”, the binding result in the experiment with GFP-E3RS is given as “binds”.
In the case of “Flag-tagged human hnRNP-U (from UniProt Q00839 1-806)”, the binding result in the experiment with HA-E3RS (human) was “binds”.
Turning to HA-E3RS (from UniProt Q9Y297 1-605), the binding result in experiment [1] and in experiment [2] was “binds” each time.
As for Myc-Skp1 (from UniProt P63208 1-163), the binding entry in experiment [3] was “binds”.
As to “WDK1 (Flag-WD with Lys 304 mutated to Ala) (from UniProt Q9Y297 229-605)”, in [4], the binding entry was “binds”.

B1: Flag-tagged E3RS/βTrCP (Flag-E3RS) (other, UniProt Q9Y297 1-605, looked up, not shown: small tags and cut ends)
chain: MDPAEAVLQEKALKFMCSMPRSLWLGCSSLADSMPSLRCLYNPGTGALTAFQNSSEREDCNNGEPPRKIIPEKNSLRQTYNSCARLCLNQETVCLASTAMKTENCVAKTKLANGTSSMIVPKQRKLSASYEKEKELCVKYFEQWSESDQVEFVEHLISQMCHYQHGHINSYLKPMLQRDFITALPARGLDHIAENILSYLDAKSLCAAELVCKEWYRVTSDGMLWKKLIERMVRTDSLWRGLAERRGWGQYLFKNKPPDGNAPPNSFYRALYPKIIQDIETIESNWRCGRHSLQRIHCRSETSKGVYCLQYDDQKIVSGLRDNTIKIWDKNTLECKRILTGHTGSVLCLQYDERVIITGSSDSTVRVWDVNTGEMLNTLIHHCEAVLHLRFNNGMMVTCSKDRSIAVWDMASPTDITLRRVLVGHRAAVNVVDFDDKYIVSASGDRTIKVWNTSTCEFVRTLNGHKRGIACLQYRDRLVVSGSSDNTIRLWDIECGACLRVLEGHEELVRCIRFDNKRIVSGAYDGKIKVWDLVAALDPRAPAGTLCLRTLVEHSGRVFRLQFDEFQIVSSSHDDTILIWDFLNDPAAQAEPPRSPSRTYTYISR
notes: F-box protein, receptor subunit of the IκB-E3; Immunopurified material may carry endogenous Skp1/Cul1; also called β-TrCP/E3RS; WT E3RS
B1: the binding result in [5], in [6] and in [7] was “binds” in each case.
